According to US8859223B1, “Compositions and methods for imaging beta-secretase activity in living cells and organisms” (Duke University, priority 2012, dated 2014):

Tested on: HeLa cell membranes, lipid raft domains
Test: Lipid raft localization by dual fluorescence confocal microscopy
Format: cell-based
Conditions: 2 μM probe, 3 hrs, 37° C., HeLa cells

Row | Substance | cellular localization of the probe
1 | Fluorescein-labeled SEQ ID NO: 1 peptide without the cholesterol anchor: Fluorescein-labeled SEQ ID NO: 1 peptide without the cholesterol anchor (EVNLDAHFWADR; fluorescein label) | not visible using fluorescence microscopy
2 | probe described above for FIG. 3: fluorescein on N-terminus of SEQ ID NO: 1 peptide, cholesterol-modified aspartic acid tethered directly to C-terminus without PEG linker (EVNLDAHFWADR; N-terminal fluorescein; C-terminal cholesterol-modified Asp) | concentrates it in lipid raft domains
